The source of these data is PubChem BioAssay AID493014 (National Center for Advancing Translational Sciences (NCATS), 2011).

The list shows a part of the results. These are further read-outs of the screen, such as a control signal, another cell line or another target. No call is given for them. Compounds called inactive in the main read-out are mostly missing here. The note in brackets gives the kind of curve behind each potency; many fits are weak.

This experiment is described as follows: qHTS Assay to Find Inhibitors of Chronic Active B-Cell Receptor Signaling. To be noted: ABC-DLBCL IkBa-CBG/CBR reporter, luminescence ratio (green luciferase fused to IkBa over red control in TMD8 lymphoma cells), 4 h. In short, it runs like this: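 TMD8 human ABC-DLBCL cells with doxycycline-inducible IκBα–green luciferase fusion and unfused red luciferase, in 0.5% FBS medium; compounds up to 46 uM, 4 h at 37C. Green/red luminescence ratio, filter-overlap corrected, fitted to concentration-response curves.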
On the technique in general: In qHTS, concentration-response curves come from the screen itself.

Where [1] appears, read: measured here: CBR red luminescence, cell number.
The mark [2] stands for this setting: measured here: IkBa-CBG green luminescence.

On to `COC(=O)Cn1c(C)nc2c(sc3nc(C)cc(C)c32)c1=O`, for which, under setting [1], the AC50 was 0.411 µM [rising, full curve, poor fit].

For the compound `O=C(COc1ccc2oc(-c3ccco3)cc(=O)c2c1)N1CCCCC1`, the AC50 under setting [1] was 6.31 µM [falling, partial curve, poor fit].

Regarding `Cc1nc(NC(=O)CSc2nc3ccccc3s2)sc1C(=O)N(C)C`, the AC50 under setting [1] is 12.6 µM [falling, partial curve, poor fit].

For the compound `CCCCNC(=O)OC(C)CNC(=O)Oc1cccc(C)c1` (centres undefined), under setting [1], the AC50 was 29.1 µM [rising, single point].

On to `CSCCC(NC(=O)COc1ccccc1)C(=O)OCC(=O)c1cc2ccccc2o1` (centres undefined), for which the half-maximal activity concentration (AC50) under setting [1] is 1.16 µM [falling, full curve, poor fit].

Take `COc1ccccc1C(=O)N/N=C/C(C)=C/c1ccccc1`: the half-maximal activity concentration (AC50) under setting [1] is 0.316 µM [falling, full curve, poor fit].

In the case of `Cn1nnnc1Sc1ccc(C(=O)O)cc1[N+](=O)[O-]`, the AC50 under setting [1] is 31.6 µM [rising, single point].

As for `COc1ccc(OC)c(NC(=O)CSC2=Nc3ccccc3C3=NC(CC(=O)NCc4ccc(F)cc4)C(=O)N23)c1` (centres undefined), the AC50 under setting [1] was 35.5 µM [falling, single point].

Turning to `Cc1cc(C)c(C(=O)COC(=O)CCNS(=O)(=O)c2c(Cl)cccc2Cl)cc1C`, the AC50 under setting [1] is 23.1 µM [rising, partial curve, poor fit].

With `CC(C)Cc1nnc(NS(=O)(=O)Cc2ccccc2)s1`, the AC50 under setting [1] is 6.51 µM [falling, partial curve].

On to `Cc1ccnc(NS(=O)(=O)c2ccc(N=CC3=C(O)CC(C)(C)CC3=O)cc2)n1`, for which the AC50 under setting [1] is 1.3 µM [rising, full curve, poor fit].

As for `Cc1noc(C)c1CSc1nnc2ccc3ccccc3n12`, the AC50 under setting [1] was 6.51 µM [rising, partial curve, poor fit].

Regarding `Oc1ccc(/C=N/NC(=S)NCc2ccco2)cc1`, the AC50 under setting [1] was 7.94 µM [falling, partial curve].

Take `Cc1cc(Cl)c2oc(C(=O)NCC(C)(C)N3CCOCC3)c(C)c2c1`: the AC50 under setting [1] is 0.398 µM [rising, full curve, poor fit].

Consider `O=C(Nc1ccc(-c2nc3ccccc3s2)c(OC(=O)c2ccccc2)c1)c1ccccc1`, for which, under setting [1], the AC50 is 2.06 µM [rising, full curve, poor fit].

For `COc1ccc([N+](=O)[O-])cc1N(CC(O)CN(CC(C)C)CC(C)C)S(=O)(=O)c1ccccc1` (centres undefined), the AC50 under setting [1] is 7.08 µM [falling, partial curve, poor fit].

Consider `COC(=O)C1CCN(C(=O)COC(=O)COc2ccc(C#N)cc2)CC1`, for which the AC50 under setting [1] is 35.5 µM [rising, single point].

As to `COc1ccc(S(=O)(=O)N2CCOCC2)cc1NC(=O)CCc1cc(OC)c(OC)c(OC)c1`, the AC50 under setting [1] is 4.11 µM [rising, full curve, poor fit].

On to `Cn1c(=O)c([N+](=O)[O-])c(NCCc2ccccc2)c2ccccc21`, for which the AC50 under setting [1] is 18.4 µM [falling, partial curve, poor fit].

For the compound `COc1cccc(NS(=O)(=O)c2ccc3[nH]cc(C(=O)NC4CC4)c(=O)c3c2)c1`, the AC50 under setting [1] is 1.84 µM [falling, full curve, poor fit].

Regarding `c1cnc(SCCOc2cccc3ccccc23)nc1`, the AC50 under setting [1] is 0.58 µM [rising, partial curve, poor fit].

In the case of `O=C(CSc1nc2cc(Cl)ccc2s1)c1ccco1`, the AC50 under setting [1] is 12.6 µM [rising, partial curve].

With `Cn1c(NC(=O)c2ccc(F)cc2)nc2ccccc21`, the AC50 under setting [1] was 10 µM [falling, partial curve, poor fit].

Turning to `CCCc1[nH]n(-c2ccc([N+](=O)[O-])cc2)c(=O)c1C=NCCCn1ccnc1`, the AC50 under setting [1] was 35.5 µM [falling, single point].

Take `COC(=O)c1cccc(NC(=S)Nc2cc(Cl)ccc2OC)c1`: under setting [1], the AC50 was 5.62 µM [falling, single point].

Regarding `CCCNc1nc(Nc2ccc(C)cc2)nc(N2CCCC2)n1`, under setting [1], the AC50 was 6.51 µM [rising, single point].

With `C=CCNc1nc(NCC)nc(N2CCOCC2)n1`, the AC50 under setting [1] was 0.316 µM [rising, full curve, poor fit].

For the compound `Cc1c(CCC(=O)N[C@@H](C)C(=O)O)c(=O)oc2c(C)c3oc4c(c3cc12)CCCC4`, under setting [2], the AC50 was 3.16 µM [falling, partial curve, poor fit].

Consider `COc1ccc(C(=O)NCc2ccc(-c3nc4ccccc4s3)cc2)cc1`, for which the AC50 under setting [1] was 3.98 µM [rising, partial curve, poor fit].

Take `COc1ccc(C(=O)Nc2ccc(S(=O)(=O)N3CCCC3)cc2)c(OC)c1`: the half-maximal activity concentration (AC50) under setting [1] was 20.6 µM [rising, single point].

As to `CCCCn1c(SCC(N)=O)nc2sc3c(c2c1=O)CCC3`, the AC50 under setting [1] is 3.98 µM [rising, partial curve, poor fit].

For the compound `COc1cc(C(=O)NC2CCN(CC(=O)Nc3cccc(C)c3C)CC2)cc(OC)c1OC`, the AC50 under setting [1] was 7.08 µM [rising, full curve, poor fit].

As for `CCOC(=O)c1ccc(N2C(=O)CC(N3CCN(C(=O)c4ccccc4)CC3)C2=O)cc1` (centres undefined), the AC50 under setting [1] is 12.6 µM [rising, single point].

Regarding `O=C(CCN1C(=O)/C(=C/c2ccc3c(c2)OCO3)SC1=S)Nc1ccccc1`, the AC50 under setting [1] is 9.2 µM [falling, partial curve, poor fit].

In the case of `CCN(C(=O)COC(=O)c1cc([N+](=O)[O-])ccc1N1CCOCC1)C1CCCCC1`, the AC50 reads like this: under setting [1], 16.4 µM [rising, single point]; under setting [2], 4.11 µM [falling, single point].

For `O=C(O)C1=CCCN(CCON=C(c2ccccc2)c2ccccc2)C1`, the AC50 under setting [1] is 20.6 µM [falling, partial curve, poor fit].

Consider `O=c1[nH]c(CCl)nc2cc(-c3ccc(Cl)cc3)sc12`, for which the AC50 under setting [1] was 9.2 µM [falling, partial curve, poor fit].

On to `Cc1nc(SCc2ccc(Br)cc2)[nH]c(=O)c1C`, for which the AC50 was 25.9 µM [rising, partial curve, poor fit] under setting [1] and 20.6 µM [falling, single point] under setting [2].

Take `CCN1C(=O)C(CC(=O)Nc2ccc(OC)cc2)N(Cc2ccco2)C1=S` (centres undefined): under setting [1], the AC50 was 20.6 µM [falling, single point].

In the case of `O=C(Nc1cc(SCCO)cc([N+](=O)[O-])c1)c1ccco1`, the AC50 under setting [1] was 6.51 µM [rising, full curve].

Take `O=C(CSc1nc(-c2ccccc2)c(-c2ccccc2)o1)Nc1nncs1`: the AC50 under setting [1] was 1.3 µM [falling, full curve, poor fit].

For `CN(C)S(=O)(=O)c1ccc(NC(=O)COC(=O)c2n[nH]c3ccccc23)cc1`, the AC50 under setting [1] is 20 µM [falling, single point].

As for `CC(C)(CO)NCc1c(OCc2ccc(Cl)cc2)ccc2ccccc12`, the half-maximal activity concentration (AC50) under setting [1] was 35.5 µM [falling, single point].

With `CC(C)(C)c1ccc(/C=N/Nc2cccc(C(=O)O)c2)cc1`, the AC50 under setting [1] is 11.2 µM [falling, partial curve, poor fit].

As for `O=C(NCCCN1CCOCC1)C(=O)N/N=C/c1ccccc1Cl`, the AC50 under setting [2] was 25.1 µM [rising, partial curve, poor fit].

As to `N#Cc1ccc(CC(C(=O)O)N2Cc3ccccc3C2=O)cc1` (centres undefined), the concentration at half-maximal activity (AC50) under setting [1] was 22.4 µM [rising, partial curve, poor fit].

On to `O=c1oc2ccc3ccccc3c2cc1-c1nnc(-c2ccccc2)o1`, for which the AC50 under setting [1] is 10 µM [falling, partial curve].

On to `Cc1nn(-c2ccccc2)c(Cl)c1/C=N/Nc1nc2ccccc2[nH]1`, for which the AC50 under setting [1] was 0.461 µM [rising, full curve, poor fit].

Consider `COc1cc2ccccc2cc1C(=O)NC1CCCC1`, for which the AC50 under setting [1] is 2.91 µM [rising, full curve, poor fit].

On to `COc1ccc(Br)cc1/C=C/C(=O)NC(=S)Nc1ccc(CN2CCOCC2)cc1`, for which the AC50 under setting [1] is 3.98 µM [falling, single point].

As to `Cc1ccc(NC(=O)COc2ccccc2CNC(C)(C)CC(C)(C)C)cc1`, the AC50 under setting [1] is 29.1 µM [falling, single point].

For `COc1ccc(C2=NNC(c3cccs3)=Nc3ccc(OC)cc32)cc1`, the AC50 under setting [1] is 0.58 µM [rising, partial curve].

For `CCc1cc(=S)n2c([nH]c3ccccc32)c1C#N`, the AC50 under setting [1] was 25.1 µM [falling, single point].

For the compound `CC(OC(=O)C1=Cc2ccccc2OC1)C(=O)NCc1ccco1` (centres undefined), the AC50 under setting [1] is 5.62 µM [rising, single point].

For the compound `COc1ccc(C)cc1NC(=O)COC(=O)Cc1ccc(-c2ccccc2)cc1`, under setting [1], the AC50 is 1.46 µM [falling, full curve, poor fit].

For the compound `COc1ccc(C(=O)/C(=C\c2sccc2C)c2nc3ccccc3o2)cc1`, the AC50 under setting [1] was 18.4 µM [falling, partial curve, poor fit].

Regarding `CC(C)NC(=O)N(O)C1N(C(C)C)C(=O)N(Cc2ccc3c(c2)OCO3)C1(C)C` (centres undefined), under setting [1], the AC50 was 1.41 µM [rising, full curve, poor fit].

On to `O=C1/C(=C\c2ccco2)SC(=S)N1c1ccccc1`, for which the AC50 under setting [1] was 2.91 µM [rising, full curve, poor fit].

Regarding `Cc1ccc(S(=O)(=O)N(C)C)cc1-n1c(SCC(=O)Nc2ccc(F)c(F)c2F)nc2ccccc2c1=O`, the AC50 under setting [1] was 25.9 µM [rising, single point].

`Clc1ccc(COn2c(-c3ccc(Cl)cc3Cl)nc3ncccc32)cc1`: under setting [1], the concentration at half-maximal activity (AC50) was 0.731 µM [falling, full curve, poor fit].

As to `Cc1nc(NC(=O)c2ccc(Br)s2)sc1C(=O)N(C)C`, under setting [1], the AC50 was 29.1 µM [rising, partial curve, poor fit].

On to `CC1(C)CC(=O)c2cnc3nc4ccccc4n3c2C1`, for which, under setting [1], the AC50 was 3.16 µM [rising, partial curve].

By AC50 is commonly meant the concentration at which the activity in the assay is half-maximal.
